Some of these results come from one statement about several compounds together.
Test: Km and kcat of recombinant purified enzyme for phenylalanine
Assay type: biochemical
Conditions: purified His-tag enzyme
Description: [Measurement of Enzyme Activity of Escherichia coli Recombinant Purified Enzyme]
Escherichia coli was inoculated into 5 ml of LB medium containing 100 mg/L ampicillin sodium or 100 mg/L kanamycin sulfate, and cultured overnight at 37° C. It was then used to inoculate 200 ml of the same culture medium and cultured to an O.D of 0.6, IPTG was added to a final concentration of 0.5 mM, and the incubation was continued for 12 hours at 28° C. The rotational speed during cultures was 120 rpm. The cultured cells were collected and suspended in 20 mM potassium phosphate buffer (pH 7.5) and subjected to ultrasonic disruption, and after centrifugal separation, the supernatant was purified using a His-Trap column and the enzyme activity was measured. The method of measuring the enzyme activity was according to the method for the crude extract described above.
Since pET28AtPAL4 and its mutants and RgPAL were produced as fusion proteins with His-tag in the Escherichia coli of Example 3, these enzymes could be easily purified using an affinity column. After culturing the producing cells, the cells were collected, disrupted and purified. The purified enzymes were used to calculate the Km values and kcat values.

B1: RgPAL: PAL derived from the yeast Rhodotorula glutinis, amino acid sequence SEQ ID NO: 2 (protein)
chain: MAPSVDSIATSVANSLSNGLAGDLRKKTSGAGSLLPTTETTQIDIVERILADAGATDQIKLDGYTLTLGDVVGAARRGRTVKVADSPQIREKIDASVEFLRTQLDNSVYGVTTGFGGSADTRTEDAISLQKALLEHQLCGVLPTSMDGFALGRGLENSLPLEVVRGAMTIRVNSLTRGHSAVRIVVLEALTNFLNHGITPIVPLRGTISASGDLSPLSYIAASITGHPDSKVHVDGQIMSAQEAIALKGLQPVVLGPKEGLGLVNGTAVSASMATLALTDAHVLSLLAQANTALTVEAMVGHAGSFHPFLHDVTRPHPTQIEVARNIRTLLEGSKYAVHHETEVKVKDDEGILRQDRYPLRCSPQWLGPLVSDMIHAHSVLSLEAGQSTTDNPLIDLENKMTHHGGAFMASSVGNTMEKTRLAVALMGKVSFTQLTEMLNAGMNRALPSCLAAEDPSLSYHCKGLDIAAAAYTSELGHLANPVSTHVQPAEMGNQAINSLALISARRTAEANDVLSLLLATHLYCVLQAVDLRAMEFEHTKEFEPMVTDLLKQHFGALATADVEDKVRKSIYKRLQQNNSYDLEQRWHDTFSVATGAVVEALAGNEVSLASLNAWKVACAEKAIALTRTVRDSFWAAPSSASPALKYLSPRTRILYSFVREDVGVKARRGDVYLGKQEVTIGTNVSRIYEAIKDGRIAPVLVKMMA
modifications: RgPAL cDNA
For B1, the Km was ≤ 100 µM.

Source: patent publication US10053716B2, “4-amino cinnamic acid production method using enzyme” (JAPAN SCIENCE AND TECHNOLOGY AGENCY, priority 2014, dated 2018)
